PubChem BioAssay AID504786, Drosophila RNAi Screening Center | 2011
The deposit covers about 21,000 reagents; below is an unselected part of those that have a named target and a result. 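Primary screen; positive scores mean lost reporter signal, so the sign may be inverted from the usual convention.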 Further read-outs or replicates are left out here.

Test: 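Fly genes required for HIF-dependent transcription when hypoxia is mimicked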 (primary screen)
Cells: Drosophila S2 cells with a stable HIF luciferase reporter
Reagents: long dsRNA against Drosophila genes, about 0.2 µg dsRNA per well of a 384-well plate
Timing: three days of knock-down, then 20 h of DFO before reading
Treatment: desferrioxamine (DFO) at 100 µM, an iron chelator that mimics hypoxia, for 20 h
Read-out: 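HIF reporter luminescence in cells given 100 µM DFO for 20 h, using the mouse ldh-a hypoxia-response element, scored as per-plate z-scores; higher means greater loss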
Direction: z-score: higher = stronger loss of HIF reporter signal

z-score, replicate 1, by gene and reagent
CG1213: DRSC12191 0.3
Sumo: DRSC03611 3.1
nw: DRSC06749 -0.3; DRSC06896 0.1
CCHa1-R: DRSC06456 -0.1; DRSC06715 -0.3
CG12594: DRSC14532 -0.4
CG30099: DRSC07039 -0.4
TwdlV: DRSC12226 -0.3
MSBP: DRSC20146 -0.3
Stt3B: DRSC16781 -0.1
pigs: DRSC17472 -0.4; DRSC18334 -0.3; DRSC18335 -0.1
Rnmt: DRSC03558 -0.4
CG9205: DRSC08642 -0.3
ric8a: DRSC18093 -0.3
CG31106: DRSC14655 0
Jhbp14: DRSC01988 0.1
CG13930: DRSC08399 -0.2
CG15237: DRSC04971 -0.3
CG41099: DRSC21049 0; DRSC21051 -0.2
CG42449: DRSC18084 -0.2
CG14480: DRSC06452 -0.3
TwdlL: DRSC16042 -0.3
CG13204: DRSC06328 -0.3

Already shown: 8 of the entries above.
z-score, replicate 1, by gene and reagent
MSBP: DRSC20146 -0.3
Stt3B: DRSC16781 -0.1
pigs: DRSC17472 -0.4; DRSC18334 -0.3; DRSC18335 -0.1
Rnmt: DRSC03558 -0.4
CG9205: DRSC08642 -0.3
ric8a: DRSC18093 -0.3

The listing continues:
z-score, replicate 1, by gene and reagent
Tcs3: DRSC10461 0
Membrin: DRSC10448 -0.5
CG12194: DRSC00345 -0.3
CG3014: DRSC15458 -0.3
Or47a: DRSC07491 -0.1
Nadsyn: DRSC20222 -0.2
ClpP: DRSC02806 -0.4
cato: DRSC07589 -0.3
CG32436: DRSC11683 -0.1; DRSC11796 -0.1
CG14893: DRSC15015 -0.2
EMRE: DRSC06686 -0.3
Atg16: DRSC15052 -0.3; DRSC15300 0; DRSC15375 -0.2
salto: DRSC06291 -0.3
CG34276: DRSC15811 -0.4
Mtap: DRSC06890 0
CG1638: DRSC15132 -0.2
YME1L: DRSC04378 -0.2
CecA1: DRSC16603 0.7
schlank: DRSC18102 -0.2; DRSC18313 -0.2
CG18266: DRSC02659 -0.1
CG14471 (retired record): DRSC04865 -0.3
CG17163: DRSC20901 0.3
VGAT: DRSC07160 0
CG11286: DRSC14293 -0.3
CG11664: DRSC18650 -0.4
